Experimental data: PubChem BioAssay AID1259254 (NCATS, 2017)
The deposit covers about 59,000 reagents; this is an unselected part. In the full data, about 1,550 (2.6%) got an active call. 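G2 share is only a proxy for re-replication; each gene was hit by three separate siRNAs, and active genes were retested.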 Raw values are not corrected between plates. Reagents against one gene are numbered here. Not given: the amount of reagent.

- Test: 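Finding genes that stop cells copying their DNA twice in one cycle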 (primary screen)
- System: human HCT116 colorectal cancer cells
- Knock-down reagent: single siRNA against human genes
- Duration: 3 days
- Detection: 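Imaged Hoechst DNA stain sorts each cell into a cycle phase by DNA amount; per plate, G2 fraction set to 0% for non-targeting and 100% for GMNN siRNA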
- Direction: G2 robust z-score and G2 cells, % of GMNN control: higher = more G2 cells, more excess DNA replication; raw share of cells in G2: higher = larger share of cells with G2 DNA content
- Hit rule: 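An siRNA counts as active if its G2 robust z-score lies at least 5 MADs above the screen median; here such calls match roughly 38% of GMNN control or more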

gene | reagent | G2 robust z-score | G2 cells, % of GMNN control | raw share of cells in G2 (%) | activity call
NDST1 | 1 | 0.811 | 8.67 | 7.38 | inactive
NDST1 | 2 | -0.948 | -3.7 | 4.27 | inactive
NDST1 | 3 | -1.21 | -5.54 | 3.03 | inactive
LOC730081 (retired record) | 1 | 0.99 | 9.93 | 6.74 | inactive
LOC730081 (retired record) | 2 | -0.293 | 0.903 | 3.36 | inactive
LOC730081 (retired record) | 3 | 0.449 | 6.13 | 6.59 | inactive
BTBD8 | 1 | 0.421 | 5.93 | 5.8 | inactive
BTBD8 | 2 | -0.687 | -1.87 | 2.32 | inactive
BTBD8 | 3 | -0.85 | -3.01 | 2.35 | inactive
PSMA8 | 1 | 3.47 | 27.3 | 17.2 | inactive
PSMA8 | 2 | 1.16 | 11.2 | 8.15 | inactive
PSMA8 | 3 | -0.13 | 2.05 | 5.03 | inactive
OR2T6 | 1 | 0.282 | 4.95 | 5.37 | inactive
OR2T6 | 2 | 0.139 | 3.94 | 4.48 | inactive
OR2T6 | 3 | 0.495 | 6.45 | 5.25 | inactive
ATCAY | 1 | 0.953 | 9.67 | 8.19 | inactive
ATCAY | 2 | 0.399 | 5.77 | 4.81 | inactive
ATCAY | 3 | 0.0395 | 3.25 | 3.95 | inactive
SMAP1 | 1 | -1.02 | -4.2 | 3.91 | inactive
SMAP1 | 2 | 4.02 | 31.2 | 15.4 | inactive
SMAP1 | 3 | -0.215 | 1.46 | 4.75 | inactive
CTSLP3 | 1 | -0.122 | 2.11 | 4.44 | inactive
CTSLP3 | 2 | 0.331 | 5.3 | 5.18 | inactive
CTSLP3 | 3 | 0.0275 | 3.16 | 4.07 | inactive
DCANP1 | 1 | 0.232 | 4.6 | 5.37 | inactive
DCANP1 | 2 | 2.29 | 19.1 | 8.81 | inactive
DCANP1 | 3 | -0.808 | -2.72 | 2.12 | inactive
OR51G2 | 1 | 0.152 | 4.04 | 3.48 | inactive
OR51G2 | 2 | 0.0271 | 3.16 | 5.76 | inactive
OR51G2 | 3 | 0.83 | 8.81 | 8.15 | inactive
LCP1 | 1 | 0.949 | 9.65 | 9.29 | inactive
LCP1 | 2 | 0.822 | 8.75 | 8.74 | inactive
LCP1 | 3 | -0.102 | 2.25 | 3.94 | inactive
LRRC55 | 1 | -1.49 | -7.5 | 2.38 | inactive
LRRC55 | 2 | -0.0307 | 2.75 | 5.71 | inactive
LRRC55 | 3 | -0.376 | 0.32 | 4.84 | inactive
GBP6 | 1 | 4.4 | 33.9 | 18.9 | inactive
GBP6 | 2 | -1.62 | -8.4 | 1.95 | inactive
GBP6 | 3 | 2.91 | 23.4 | 13.3 | inactive
KCNJ2 | 1 | -0.43 | -0.0606 | 5.27 | inactive
KCNJ2 | 2 | -0.92 | -3.51 | 3.6 | inactive
KCNJ2 | 3 | -0.364 | 0.408 | 4.53 | inactive
PGM5P4 | 1 | -0.0805 | 2.4 | 5.04 | inactive
PGM5P4 | 2 | -0.743 | -2.26 | 2.46 | inactive
PGM5P4 | 3 | -0.484 | -0.438 | 3.01 | inactive
MUTYH | 1 | 0.566 | 6.95 | 8.22 | inactive
MUTYH | 2 | -0.628 | -1.45 | 4.8 | inactive
MUTYH | 3 | -1.02 | -4.21 | 1.81 | inactive
CIAO2B | 1 | -0.42 | 0.0153 | 3.61 | inactive
CIAO2B | 2 | -0.919 | -3.5 | 2.8 | inactive
CIAO2B | 3 | -0.863 | -3.1 | 2.17 | inactive
THSD4 | 1 | -0.426 | -0.0284 | 2.78 | inactive
THSD4 | 2 | -1.04 | -4.37 | 3.94 | inactive
THSD4 | 3 | 1.4 | 12.8 | 7.67 | inactive
MYO7A | 1 | -0.464 | -0.295 | 3.1 | inactive
MYO7A | 2 | -1.02 | -4.23 | 3.72 | inactive
MYO7A | 3 | 4.74 | 36.3 | 19.9 | inactive
TAF2 | 1 | 2.04 | 17.3 | 11.5 | inactive
TAF2 | 2 | 2.04 | 17.3 | 10.5 | inactive
TAF2 | 3 | 3.03 | 24.3 | 12 | inactive
FAM53A | 1 | -0.304 | 0.832 | 3.36 | inactive
FAM53A | 2 | -0.0964 | 2.29 | 4.6 | inactive
FAM53A | 3 | 0.991 | 9.94 | 5.98 | inactive
C15orf61 | 1 | 0.869 | 9.08 | 6.87 | inactive
C15orf61 | 2 | 0.908 | 9.35 | 5.8 | inactive
C15orf61 | 3 | -0.507 | -0.599 | 2.86 | inactive
CRTC1 | 1 | -0.0299 | 2.76 | 4.49 | inactive
CRTC1 | 2 | -0.687 | -1.87 | 2.91 | inactive
CRTC1 | 3 | 2.59 | 21.2 | 15.4 | inactive
CCPG1 | 1 | 4.17 | 32.3 | 19.9 | inactive
CCPG1 | 2 | 3.09 | 24.7 | 14.2 | inactive
CCPG1 | 3 | -0.997 | -4.05 | 1.93 | inactive
RGS22 | 1 | -0.3 | 0.856 | 4.73 | inactive
RGS22 | 2 | 0.465 | 6.24 | 6.64 | inactive
RGS22 | 3 | 1.03 | 10.2 | 6.88 | inactive
DUS3L | 1 | -0.536 | -0.802 | 4.03 | inactive
DUS3L | 2 | -0.318 | 0.73 | 4.81 | inactive
DUS3L | 3 | -0.355 | 0.471 | 3.18 | inactive
COQ10A | 1 | -0.986 | -3.97 | 2.4 | inactive
COQ10A | 2 | 0.386 | 5.68 | 4.78 | inactive
COQ10A | 3 | 3.82 | 29.8 | 12.4 | inactive
COLGALT2 | 1 | -0.0862 | 2.36 | 5.91 | inactive
COLGALT2 | 2 | 0.717 | 8.01 | 7.44 | inactive
COLGALT2 | 3 | -0.777 | -2.5 | 2.24 | inactive
FBLN5 | 1 | -0.355 | 0.468 | 3.99 | inactive
FBLN5 | 2 | -0.315 | 0.755 | 6.02 | inactive
FBLN5 | 3 | -0.936 | -3.62 | 5.05 | inactive

Reformatted: 10 of the entries above.
gene,reagent,G2 robust z-score,"G2 cells, % of GMNN control",raw share of cells in G2 (%),activity call
LOC730081 (retired record),1,0.99,9.93,6.74,inactive
LOC730081 (retired record),2,-0.293,0.903,3.36,inactive
LOC730081 (retired record),3,0.449,6.13,6.59,inactive
BTBD8,1,0.421,5.93,5.8,inactive
BTBD8,2,-0.687,-1.87,2.32,inactive
BTBD8,3,-0.85,-3.01,2.35,inactive
PSMA8,1,3.47,27.3,17.2,inactive
PSMA8,2,1.16,11.2,8.15,inactive
PSMA8,3,-0.13,2.05,5.03,inactive
OR2T6,1,0.282,4.95,5.37,inactive
